Source: PubChem BioAssay AID1053208 (Peter MacCallum Cancer Centre, 2014)

Purpose: 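Synthetic lethal interactions between gene loss and doxorubicin in osteosarcoma cells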 (primary screen)
Cells: mouse osteosarcoma cells, early-passage culture from an engineered mouse model of fibroblastic bone tumour
Reagent: siRNA pool against mouse genes, 40 nM
Duration: about 120 h (48 h before drug, then 72 h with drug)
Conditions: doxorubicin 100 nM for 72 h, roughly 30-40% inhibitory dose
Measurement: 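Luminescent ATP signal taken as viability with or without 100 nM doxorubicin for 72 h; mean of two wells set against non-targeting siRNA and turned into robust z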
Direction: viability z-score with doxorubicin: higher = more viable cells under doxorubicin; viability z-score without drug: higher = more viable cells with knock-down alone
Call rule: 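a pool counts as active when its viability z-score with doxorubicin is -2 or below and its z-score without drug lies between -2 and 2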
In all, the deposit lists about 17,000 reagents; shown is a part drawn at random. 788 of all reagents (4.7%) count as active. 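Calls rest on z-score classes alone; an extra cut-off of viability at most 70% of control was not applied to them.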 Not all columns of the deposit are shown.

Silencing of Chmp1a [SID152321406] gave: combined z-score class low cell count with doxorubicin only; viability z-score with doxorubicin -4.72; viability z-score without drug -0.17; active.
Fam131b [SID152337610] showed combined z-score class no change with or without drug; viability z-score with doxorubicin 0.9; viability z-score without drug -1.52; inactive.
After knock-down of Ncan [SID152271496] the results were combined z-score class no change with or without drug; viability z-score with doxorubicin -0.67; viability z-score without drug 0.84; inactive.
Depletion of Nrxn1 [SID152323096] resulted in: combined z-score class no change with or without drug; viability z-score with doxorubicin 0.34; viability z-score without drug 0.51; inactive.
Against Or4a39 [SID152285729], the values are combined z-score class no change with or without drug; viability z-score with doxorubicin -0.45; viability z-score without drug -0.51; inactive.
Silencing of Tdo2 [SID152338347] came out at: combined z-score class no change with or without drug; viability z-score with doxorubicin -1.8; viability z-score without drug -0.51; inactive.
For Dhx29 [SID152301909], the entry reads combined z-score class no change with or without drug; viability z-score with doxorubicin 0.67; viability z-score without drug 1.69; inactive.
Knock-down of Nfx1 [SID152321472] resulted in: combined z-score class no change with or without drug; viability z-score with doxorubicin 1.57; viability z-score without drug -0.51; inactive.
Against Scarb1 [SID152289565], the values are combined z-score class high cell count without drug only; viability z-score with doxorubicin 1.57; viability z-score without drug 2.19; inactive.
Against Tmed9 [SID152320410], the values are combined z-score class no change with or without drug; viability z-score with doxorubicin 0.45; viability z-score without drug 0.67; inactive.
For Arhgap20 [SID152335019], the entry reads combined z-score class no change with or without drug; viability z-score with doxorubicin 1.12; viability z-score without drug 0.84; inactive.
Knock-down of Lrrc75a [SID152330597] resulted in: combined z-score class no change with or without drug; viability z-score with doxorubicin 1.12; viability z-score without drug -0.67; inactive.
Dguok [SID152319217] showed combined z-score class no change with or without drug; viability z-score with doxorubicin 1.12; viability z-score without drug 0; inactive.
After knock-down of Gphn [SID152320674], the screen gave combined z-score class no change with or without drug; viability z-score with doxorubicin 1.35; viability z-score without drug -0.84; inactive.
Silencing of Opcml [SID152315234] resulted in: combined z-score class no change with or without drug; viability z-score with doxorubicin 0.79; viability z-score without drug 1.52; inactive.
Against Clec2m [SID152340591], the values are combined z-score class low cell count with doxorubicin only; viability z-score with doxorubicin -2.81; viability z-score without drug 0.34; active.
Depletion of Larp1b [SID152310137] gave: combined z-score class no change with or without drug; viability z-score with doxorubicin -0.45; viability z-score without drug -0.34; inactive.
Slc25a21 [SID152341248] showed combined z-score class no change with or without drug; viability z-score with doxorubicin 0.45; viability z-score without drug 0.84; inactive.
After knock-down of Nop56 [SID152305053], the record shows combined z-score class no change with or without drug; viability z-score with doxorubicin 0.22; viability z-score without drug -0.84; inactive.
Rnf212 [SID152278842] scored combined z-score class no change with or without drug; viability z-score with doxorubicin -0.9; viability z-score without drug 0.84; inactive.
Apoa5 [SID152303144] gave combined z-score class low cell count without drug only; viability z-score with doxorubicin -0.45; viability z-score without drug -2.19; inactive.
For Sftpa1 [SID152311995], the entry reads combined z-score class no change with or without drug; viability z-score with doxorubicin -0.67; viability z-score without drug -0.34; inactive.
Against Pnkd [SID152336326], the values are combined z-score class no change with or without drug; viability z-score with doxorubicin -1.35; viability z-score without drug -0.84; inactive.
Knock-down of Zftraf1 [SID152334824] gave: combined z-score class no change with or without drug; viability z-score with doxorubicin 0.79; viability z-score without drug -0.17; inactive.
Tfe3 [SID152295286] gave combined z-score class high cell count without drug only; viability z-score with doxorubicin 0.9; viability z-score without drug 2.02; inactive.
With knock-down of Tspan14 [SID152272457], the screen gave combined z-score class no change with or without drug; viability z-score with doxorubicin -0.67; viability z-score without drug -0.84; inactive.
Depletion of Morf4l2 [SID152290442] came out at: combined z-score class low cell count without drug only; viability z-score with doxorubicin -1.35; viability z-score without drug -2.02; inactive.
Pls3 [SID152328111] showed combined z-score class no change with or without drug; viability z-score with doxorubicin 0; viability z-score without drug 1.01; inactive.

2 entries already listed, sorted by “viability z-score with doxorubicin”, ascending:
Pnkd [SID152336326]: combined z-score class = no change with or without drug; viability z-score with doxorubicin = -1.35; viability z-score without drug = -0.84; outcome = inactive
Zftraf1 [SID152334824]: combined z-score class = no change with or without drug; viability z-score with doxorubicin = 0.79; viability z-score without drug = -0.17; outcome = inactive
